Values from PubChem BioAssay AID493246 (Drosophila RNAi Screening Center, 2011).

- Aim: 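Genes fly cells need to grow and stay alive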 (primary screen)
- Cells: Drosophila Kc and S2R+ cells
- Knock-down reagent: long dsRNA against Drosophila genes
- Measurement: 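Cell number per well after knock-down, printed as raw plate values; calls were based on per-plate z-scores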
- Direction: Kc cell number and S2R+ cell number: higher = more cells remaining
- Rule for the call: 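Active when the per-plate z-score of cell number is 3 or more in the direction of fewer cells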
The deposit covers about 21,000 reagents; shown is a random part of those that have a named target and a result. Of all reagents, 429 (2%) got an active call. 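Values are raw and not normalised between plates; calls rest on per-plate z-scores that were not deposited.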 Not given: the amount of reagent, the time to read-out.

| gene | amplicon | Kc cell number, rep 1 | Kc cell number, rep 2 | S2R+ cell number, rep 1 | S2R+ cell number, rep 2 | Outcome |
| --- | --- | --- | --- | --- | --- | --- |
| gish (gilgamesh) | DRSC16154 | 1.46e6 | 1.50e6 | 1.07e6 | 1.12e6 | inactive |
| CG4610 | DRSC04477 | 1.82e6 | 1.84e6 | 1.24e6 | 1.34e6 | inactive |
| slam (slow as molasses) | DRSC03240 | 1.56e6 | 1.74e6 | 1.24e6 | 1.43e6 | inactive |
| CG2736 | DRSC04314 | 1.43e6 | 1.51e6 | 1.06e6 | 1.04e6 | inactive |
| CG6329 | DRSC06976 | 1.37e6 | 1.50e6 | 2.63e5 | 1.15e6 | inactive |
| CBP (sarcoplasmic calcium-binding protein) | DRSC17746 | 6.53e5 | – | 9.53e5 | – | inactive |
| dysf (dysfusion) | DRSC14529 | 1.45e6 | 1.61e6 | 1.05e6 | 1.17e6 | inactive |
| dysf (dysfusion) | DRSC14895 | 1.54e6 | 1.56e6 | 9.26e5 | 1.04e6 | inactive |
| dysf (dysfusion) | DRSC14896 | 1.46e6 | 1.54e6 | 1.05e6 | 1.15e6 | inactive |
| dysf (dysfusion) | DRSC14897 | 1.45e6 | 1.56e6 | 6.35e5 | 7.29e5 | active |
| Nadk1a (NAD kinase 1a) | DRSC05431 | 1.48e6 | 1.45e6 | 9.83e5 | 1.11e6 | inactive |
| Nadk1a (NAD kinase 1a) | DRSC06963 | 1.42e6 | 1.47e6 | 1.15e6 | 1.20e6 | inactive |
| Ppn (Papilin) | DRSC15328 | 1.58e6 | 1.68e6 | 1.01e6 | 1.16e6 | inactive |
| CG11293 (retired record) | DRSC04098 | 1.50e6 | 1.55e6 | 1.24e6 | 1.36e6 | inactive |
| ssp (sunspot) | DRSC10252 | 1.32e6 | 1.36e6 | 1.05e6 | 1.05e6 | inactive |
| CG12984 | DRSC11693 | 1.35e6 | 1.39e6 | 1.30e6 | 1.40e6 | inactive |
| sima (similar) | DRSC17055 | 1.43e6 | 1.54e6 | 8.27e5 | 9.05e5 | inactive |
| glec (gliolectin) | DRSC16958 | 1.25e6 | 1.37e6 | 1.10e6 | 1.14e6 | inactive |
| raptor | DRSC18359 | 1.49e6 | 1.49e6 | 8.99e5 | 1.06e6 | inactive |
| CG4502 | DRSC02755 | 1.16e6 | 1.24e6 | 4.21e5 | 6.15e5 | inactive |
| CG17571 | DRSC01768 | 5.20e5 | – | 7.74e5 | – | inactive |
| CG17571 | DRSC03755 | 1.48e6 | 1.54e6 | 1.24e6 | 2.96e5 | inactive |
| CG13405 | DRSC08310 | 1.22e6 | 1.27e6 | 9.77e5 | 1.24e6 | inactive |
| Vps13D (Vacuolar protein sorting 13D) | DRSC09818 | 1.17e6 | 1.39e6 | 1.18e6 | 1.27e6 | inactive |
| Vps13D (Vacuolar protein sorting 13D) | DRSC09819 | 1.18e6 | 1.43e6 | 1.14e6 | 1.22e6 | inactive |
